The results in this text go back to article PMC10758104.

Results are given in words; binding and its absence hold for the method and conditions named. Binding seen in cells or lysates may run through a third protein. A yes stands for co-enrichment or nearness to the bait. Other partners may have been found. Sequences can lack the tags named with a protein.

The assay deals with T1, SLC40A1 (Flag-tagged, overexpressed in cardiomyocytes of Slc40a1 transgenic mice) (UniProt Q9JHI9).
T1 sequence: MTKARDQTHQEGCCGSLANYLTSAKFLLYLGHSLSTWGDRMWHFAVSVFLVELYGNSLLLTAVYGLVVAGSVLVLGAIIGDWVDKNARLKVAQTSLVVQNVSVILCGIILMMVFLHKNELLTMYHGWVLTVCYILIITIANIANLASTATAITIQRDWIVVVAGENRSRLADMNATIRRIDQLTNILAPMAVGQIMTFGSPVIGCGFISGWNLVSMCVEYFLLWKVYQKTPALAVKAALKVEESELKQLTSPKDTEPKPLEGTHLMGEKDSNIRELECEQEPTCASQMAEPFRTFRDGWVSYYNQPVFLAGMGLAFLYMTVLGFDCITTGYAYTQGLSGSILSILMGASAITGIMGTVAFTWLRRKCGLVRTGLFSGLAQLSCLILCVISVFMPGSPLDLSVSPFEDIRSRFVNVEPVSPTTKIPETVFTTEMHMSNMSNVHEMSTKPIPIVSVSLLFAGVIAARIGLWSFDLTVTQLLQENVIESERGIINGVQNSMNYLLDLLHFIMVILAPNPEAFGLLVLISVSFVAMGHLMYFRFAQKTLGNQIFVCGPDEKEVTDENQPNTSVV
Put plainly: affinity purification with mass spectrometry; Co-IP from mouse heart lysate followed by LC-MS/MS for Flag-interacting proteins (Q Exactive HF-X, EASY-nLC 1200).

B1: Steap4 (six transmembrane epithelial antigen of prostate 4) (protein, UniProt Q923B6 1-470)
chain: MEKAHADEFPLTTDSSEKQGVVCIFGTGDFGKSLGLKMLQCGYSIVFGSRNPQVSSLLPRGAEVLSYSEAASKSDIIILAMHREHYDSLTELVDYLKGKVLVDVSNNRKINQYPESNAEYLAQLEPGAHVVKAFNTISAWALQSGTLDASRQVFVCGNDSKAKQRVMDIARTLGLTPLDQGSLMAASEIENYPLQLFPMWRFPFYLSSVLCVFFFVYCAIREVIYPYVNGKTDATYRLAISIPNRVFPITALILLALVYLPGILAAILQLYRGTKYRRFPNWLDHWMLCRKQLGLVALGFAFLHVIYTLVIPIRYYVRWRLRNATITQALTNKDSPFITSYAWINDSYLALGILGFFLFLLLGITSLPSVSNMVNWREFRFVQSKLGYLTLVLCTAHTLVYGGKRFLSPSILRWSLPSAYILALVIPCAVLVLKCILIMPCIDKTLTRIRQGWERNSKYTQSALNGKSDI
As to B1, the binding result is listed as “binds”.
